Substitutions are numbered along the chain they refer to. These are yes or no findings as the source states them, for the method shown. Binding can be weak; no strength is given.
Experiments:
Assay in all cases: far-Western, overlay or dot blot; rTpiA (200 ng) separated by SDS-PAGE and transferred onto PVDF; membrane blocked with 5% BSA in TBST, incubated 90 min with 30 µg/mL plasminogen at 25 °C; bound plasminogen probed with rabbit polyclonal anti-plasminogen and HRP secondary antibody; both purified
[1] = molecular target: T1, rTpiA K85A (Streptococcus pneumoniae D39) (UniProt Q04JH4)
T1 sequence: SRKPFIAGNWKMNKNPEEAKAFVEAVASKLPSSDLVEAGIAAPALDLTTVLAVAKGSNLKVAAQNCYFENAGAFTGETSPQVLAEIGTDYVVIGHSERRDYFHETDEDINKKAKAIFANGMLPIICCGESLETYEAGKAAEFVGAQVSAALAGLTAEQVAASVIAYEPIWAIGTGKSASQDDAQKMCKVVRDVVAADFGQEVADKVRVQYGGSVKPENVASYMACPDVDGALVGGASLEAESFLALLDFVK

[2] = molecular target: T2, rTpiA K216A (Streptococcus pneumoniae D39) (UniProt Q04JH4)
T2 sequence: T1 sequence with A84K, K215A

[3] = molecular target: T3, rTpiA K56A (Streptococcus pneumoniae D39) (UniProt Q04JH4)
T3 sequence: T1 sequence with K55A, A84K

[4] = molecular target: T4, rTpiA K113A (Streptococcus pneumoniae D39) (UniProt Q04JH4)
T4 sequence: T1 sequence with A84K, K112A

[5] = molecular target: T5, rTpiA K115A (Streptococcus pneumoniae D39) (UniProt Q04JH4)
T5 sequence: T1 sequence with A84K, K114A

[6] = molecular target: T6, rTpiA K177A (Streptococcus pneumoniae D39) (UniProt Q04JH4)
T6 sequence: T1 sequence with A84K, K176A

Measured: binding

human plasma plasminogen
binds: all assays above

— article PMC10221034 (2023)
